Test results published in paper PMC7246435.
Results are given in words; binding and its absence hold for the method and conditions named. For part of these data: Binding seen in cells or lysates may run through a third protein. Some binding calls cover weakened binding; strength is not graded here.

By UniProt entry, the sequences of proteins in these tests, tags left out. Residues count along the entry.
UniProt Q9L9J3: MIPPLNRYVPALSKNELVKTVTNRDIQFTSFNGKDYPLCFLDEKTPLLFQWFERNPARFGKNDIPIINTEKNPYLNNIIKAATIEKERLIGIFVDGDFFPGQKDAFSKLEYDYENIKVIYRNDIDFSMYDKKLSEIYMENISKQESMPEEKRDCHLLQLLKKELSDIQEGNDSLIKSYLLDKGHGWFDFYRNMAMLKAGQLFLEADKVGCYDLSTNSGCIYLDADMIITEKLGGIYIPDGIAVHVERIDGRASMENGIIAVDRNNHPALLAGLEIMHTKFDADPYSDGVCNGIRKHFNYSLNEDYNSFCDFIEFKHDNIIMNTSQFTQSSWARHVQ
UniProt Q99426: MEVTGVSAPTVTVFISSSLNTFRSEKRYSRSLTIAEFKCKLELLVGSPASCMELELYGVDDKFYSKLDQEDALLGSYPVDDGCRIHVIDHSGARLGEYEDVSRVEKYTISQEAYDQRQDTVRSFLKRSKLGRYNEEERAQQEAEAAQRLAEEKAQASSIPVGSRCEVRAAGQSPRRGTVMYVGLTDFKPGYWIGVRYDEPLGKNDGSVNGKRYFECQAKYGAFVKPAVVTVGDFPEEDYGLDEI
UniProt Q05516, residues 420-673: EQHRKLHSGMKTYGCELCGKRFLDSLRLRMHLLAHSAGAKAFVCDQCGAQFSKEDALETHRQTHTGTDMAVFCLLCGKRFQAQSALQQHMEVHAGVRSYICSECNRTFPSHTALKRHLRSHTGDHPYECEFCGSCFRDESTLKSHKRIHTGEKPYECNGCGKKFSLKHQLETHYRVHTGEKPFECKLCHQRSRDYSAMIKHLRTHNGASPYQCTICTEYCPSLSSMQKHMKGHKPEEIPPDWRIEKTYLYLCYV
UniProt P12956, residues 335-609: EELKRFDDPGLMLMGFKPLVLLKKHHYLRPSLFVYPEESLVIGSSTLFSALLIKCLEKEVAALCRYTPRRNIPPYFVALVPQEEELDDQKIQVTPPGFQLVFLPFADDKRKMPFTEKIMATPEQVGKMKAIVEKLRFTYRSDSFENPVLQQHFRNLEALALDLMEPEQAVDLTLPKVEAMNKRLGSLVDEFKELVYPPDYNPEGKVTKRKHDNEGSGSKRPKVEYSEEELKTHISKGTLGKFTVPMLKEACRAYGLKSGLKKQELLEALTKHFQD
UniProt Q9BW71, residues 340-556: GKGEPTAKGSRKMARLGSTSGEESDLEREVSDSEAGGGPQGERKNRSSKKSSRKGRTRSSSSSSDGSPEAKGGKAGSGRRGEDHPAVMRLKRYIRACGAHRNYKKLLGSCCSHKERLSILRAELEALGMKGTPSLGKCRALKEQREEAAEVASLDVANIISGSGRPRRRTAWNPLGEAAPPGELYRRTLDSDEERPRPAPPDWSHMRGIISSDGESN

Legend:
[1] = target: SseK1 fused to the DNA-binding domain of LexA (pIZ2203, pLEX10-SseK1) (Salmonella enterica serovar Typhimurium strain 14028) (UniProt Q9L9J3); assay: two-hybrid
[2] = target: SseK1-3xFLAG expressed in HeLa cells (pIZ2047, pBABEpuro-SseK1-3xFLAG) (Salmonella enterica serovar Typhimurium) (UniProt Q9L9J3); assay: co-IP
[3] = target: GST-TBCB (pIZ3509, pGEX-4T-1-TBCB) (human) (UniProt Q99426); assay: pull-down

Substance | binding [1] | further results
Zing finger and BTB domain-containing protein 16 (ZBTB16), clones from the Jurkat cDNA library (from UniProt Q05516 420-673) (domain or fragment) | binds | –
X-ray repair cross-complementing protein 6 (XRCC6), clone from the Jurkat cDNA library (from UniProt P12956 335-609) (domain or fragment) | binds | –
HIRA-interacting protein 3 (HIRIP3), clone from the Jurkat cDNA library (from UniProt Q9BW71 340-556) (domain or fragment) | binds | –
3xHA-TBCB expressed in HeLa cells (pIZ3423, pCS2-3xHA-TBCB) (from UniProt Q99426 1-244) | – | binding [2]: binds
Tubulin-binding cofactor B (TBCB), clones from the Jurkat cDNA library fused to the Gal4 activation domain (from UniProt Q99426 1-244) | binds | –
SseK1-3xFLAG, chromosomal fusion in Salmonella strain SV7071 (14028 sseK1::3xFLAG) (from UniProt Q9L9J3 1-336) (enzyme) | – | binding [3]: binds
